Binding data for one molecule are collected here from paper PMC5836524.

The test deals with GST-Eps15R EH2 (aa 254-362). As to the kind of experiment: pull-down; GST-tagged EH domains immobilised on beads, incubated with lysates from EGFP-Numb expressing HEK293T cells; Western blot; only the target purified. On the technique in general: In western blotting, separated proteins are transferred to a membrane and probed.

No constants are given. Whether binding was seen depends on the method and setting. In cells and extracts the contact can be indirect. Binding can be weak; no strength is given. Tags and fused reporters may be left off the sequences shown.

B1: EGFP-Numb (protein, UniProt P49757 1-651)
chain: MNKLRQSFRRKKDVYVPEASRPHQWQTDEEGVRTGKCSFPVKYLGHVEVDESRGMHICEDAVKRLKAERKFFKGFFGKTGKKAVKAVLWVSADGLRVVDEKTKDLIVDQTIEKVSFCAPDRNFDRAFSYICRDGTTRRWICHCFMAVKDTGERLSHAVGCAFAACLERKQKREKECGVTATFDASRTTFTREGSFRVTTATEQAEREEIMKQMQDAKKAETDKIVVGSSVAPGNTAPSPSSPTSPTSDATTSLEMNNPHAIPRRHAPIEQLARQGSFRGFPALSQKMSPFKRQLSLRINELPSTMQRKTDFPIKNAVPEVEGEAESISSLCSQITNAFSTPEDPFSSAPMTKPVTVVAPQSPTFQANGTDSAFHVLAKPAHTALAPVAMPVRETNPWAHAPDAANKEIAATCSGTEWGQSSGAASPGLFQAGHRRTPSEADRWLEEVSKSVRAQQPQASAAPLQPVLQPPPPTAISQPASPFQGNAFLTSQPVPVGVVPALQPAFVPAQSYPVANGMPYPAPNVPVVGITPSQMVANVFGTAGHPQAAHPHQSPSLVRQQTFPHYEASSATTSPFFKPPAQHLNGSAAFNGVDDGRLASADRHTEVPTGTCPVDPFEAQWAALENKSKQRTNPSPTNPFSSDLQKTFEIEL
In the case of B1, the binding result is “binds”.
